Values from PubChem BioAssay AID1224830 (NIAID, 2016)
The whole screen tested about 18,000 reagents; shown is a random part of them. About 2,900 of them (16%) count as active. 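Calls are made per well; low scores hint the gene aids the LPS response, high scores that it dampens it.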 Repeated entries: four replicate wells of each siRNA pool.

- Aim: 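Regulators of TLR4 signalling towards TNF-alpha in macrophage-like cells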 (primary screen)
- Cells: human THP-1 monocytic leukaemia cells, TNF dual-luciferase reporter clone, PMA-differentiated to macrophage-like cells
- Reagents: siRNA pool against human genes, 50 nM
- Timing: LPS for 4 h, given about 3 days after siRNA transfection
- Treatment: bacterial LPS (TLR4 ligand), 10 ng/ml
- Read-out: 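TNF firefly reporter luminescence divided by renilla, normalised to the plate median, then turned into a robust z-score for each replicate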
- Reading the numbers: TNF reporter robust z-score: higher = stronger TNF reporter response to LPS
- Rule for the call: 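Each well counts as active if its z-score is over 2.8 or under -1.5; controls are left without a call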

| gene | TNF reporter robust z-score | Outcome |
| --- | --- | --- |
| VPS13B (GeneID 157680) | 1.55 | inactive |
| VPS13B (GeneID 157680) | 1.14 | inactive |
| VPS13B (GeneID 157680) | 1.67 | inactive |
| VPS13B (GeneID 157680) | 2.55 | inactive |
| SNAPC3 (GeneID 6619) | -1.26 | inactive |
| SNAPC3 (GeneID 6619) | -0.87 | inactive |
| SNAPC3 (GeneID 6619) | -0.78 | inactive |
| SNAPC3 (GeneID 6619) | -0.82 | inactive |
| STK40 (GeneID 83931) | 2.67 | inactive |
| STK40 (GeneID 83931) | 1.52 | inactive |
| STK40 (GeneID 83931) | 1.15 | inactive |
| STK40 (GeneID 83931) | -0.68 | inactive |
| ZG16B (GeneID 124220) | 0.21 | inactive |
| ZG16B (GeneID 124220) | -0.02 | inactive |
| ZG16B (GeneID 124220) | -0.48 | inactive |
| ZG16B (GeneID 124220) | 0.67 | inactive |
| TMEM184C (GeneID 55751) | -0.39 | inactive |
| TMEM184C (GeneID 55751) | 5.89 | active |
| TMEM184C (GeneID 55751) | -0.74 | inactive |
| TMEM184C (GeneID 55751) | 0.3 | inactive |
| HIF1A (GeneID 3091) | 0.86 | inactive |
| HIF1A (GeneID 3091) | 1.08 | inactive |
| HIF1A (GeneID 3091) | -0.88 | inactive |
| HIF1A (GeneID 3091) | 0.51 | inactive |
| PLPBP (GeneID 11212) | -0.57 | inactive |
| PLPBP (GeneID 11212) | 0.24 | inactive |
| PLPBP (GeneID 11212) | -0.07 | inactive |
| PLPBP (GeneID 11212) | 0.12 | inactive |
| CT45A2 (GeneID 728911) | 0.7 | inactive |
| CT45A2 (GeneID 728911) | 0 | inactive |
| CT45A2 (GeneID 728911) | 0.99 | inactive |
| CT45A2 (GeneID 728911) | 3.05 | active |
| IL10 (GeneID 3586) | -0.65 | inactive |
| IL10 (GeneID 3586) | 0.61 | inactive |
| IL10 (GeneID 3586) | -0.97 | inactive |
| IL10 (GeneID 3586) | -0.08 | inactive |
| SNTG2 (GeneID 54221) | -0.12 | inactive |
| SNTG2 (GeneID 54221) | -0.2 | inactive |
| SNTG2 (GeneID 54221) | 0.85 | inactive |
| SNTG2 (GeneID 54221) | 0.74 | inactive |
| RLN2 (GeneID 6019) | -0.56 | inactive |
| RLN2 (GeneID 6019) | -1.02 | inactive |
| RLN2 (GeneID 6019) | -1.64 | active |
| RLN2 (GeneID 6019) | -1.35 | inactive |
| GJB1 (GeneID 2705) | -1.46 | inactive |
| GJB1 (GeneID 2705) | -1.25 | inactive |
| GJB1 (GeneID 2705) | -0.78 | inactive |
| GJB1 (GeneID 2705) | 0.04 | inactive |
| MGAT5B (GeneID 146664) | 0.78 | inactive |
| MGAT5B (GeneID 146664) | 0.79 | inactive |
| MGAT5B (GeneID 146664) | 0.83 | inactive |
| MGAT5B (GeneID 146664) | 0.07 | inactive |
| KCNH3 (GeneID 23416) | -0.2 | inactive |
| KCNH3 (GeneID 23416) | 0.37 | inactive |
| KCNH3 (GeneID 23416) | -0.71 | inactive |
| KCNH3 (GeneID 23416) | 0.82 | inactive |
| RPL3L (GeneID 6123) | -0.67 | inactive |
| RPL3L (GeneID 6123) | -1.41 | inactive |
| RPL3L (GeneID 6123) | -1.62 | active |
| RPL3L (GeneID 6123) | -0.89 | inactive |
| SPAG4 (GeneID 6676) | -1.01 | inactive |
| SPAG4 (GeneID 6676) | -0.93 | inactive |
| SPAG4 (GeneID 6676) | -0.47 | inactive |
| SPAG4 (GeneID 6676) | -1.09 | inactive |
| BNIP3 (GeneID 664) | -0.75 | inactive |
| BNIP3 (GeneID 664) | -0.11 | inactive |
| BNIP3 (GeneID 664) | -0.13 | inactive |
| BNIP3 (GeneID 664) | -0.47 | inactive |
| GPC4 (GeneID 2239) | 0.11 | inactive |
| GPC4 (GeneID 2239) | 0.29 | inactive |
| GPC4 (GeneID 2239) | -0.36 | inactive |
| GPC4 (GeneID 2239) | -0.31 | inactive |
| DTWD2 (GeneID 285605) | 0.08 | inactive |
| DTWD2 (GeneID 285605) | 0.41 | inactive |
| DTWD2 (GeneID 285605) | 0.73 | inactive |
| DTWD2 (GeneID 285605) | 0.84 | inactive |
